Measurements reported in PubChem BioAssay AID504744 (Drosophila RNAi Screening Center, 2011).
Test: 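Uncover factors, including feedback loops, that control dAkt activation in fly cells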 (primary screen). Cells: Drosophila Kc167 cells. Knock-down reagent: long dsRNA against Drosophila genes, 250 ng dsRNA per well of a 384-well plate. Timing: 3 days of knock-down, then overnight serum-free starvation before stimulation. Challenge: bovine insulin at 387 nM for 10 minutes after 12 h without serum. Read-out: 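Per-well phospho-dAkt level from an in-cell fluorescent antibody stain, divided by a DNA-dye signal; log2 residuals turned into z-scores that take cell number into account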. Rule for the call: 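Hit in the insulin screen when the two-replicate mean z-score is more extreme than plus or minus 2.5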.
In all, the deposit lists about 23,000 reagents; this is a random part of those with a known target gene and a result. Of all reagents, 98 (0.43%) got an active call. 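Only hit calls are given; the phospho-dAkt signals, z-scores and hit direction were not deposited.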 A plus sign joins genes that one reagent is predicted to hit.

Target gene	PubChem SID	outcome
CG8289	SID104199893	inactive
CG15546	SID104194876	inactive
CG15546	SID104202190	inactive
ect	SID104190467	inactive
ect	SID104191135	inactive
ect	SID104201848	inactive
RhoGAP93B	SID104195280	inactive
TBC1d7 + mRpS24	SID104194403	inactive
RpL35	SID104198139	inactive
mei-W68	SID104187441	inactive
CG14258	SID104194545	inactive
CG1628	SID104197901	inactive
ro	SID104196838	inactive
Tango4	SID104199578	inactive
CG1785	SID104197931	inactive
Vtld + CG42529	SID104189894	inactive
CG30440	SID104184567	inactive
CG30440	SID104184637	inactive
CG30440	SID104184647	inactive
CG33459	SID104185407	inactive
e(y)2b	SID104192348	inactive
CG31933	SID104180249	inactive
HDAC3	SID104192144	inactive
CG4382	SID104182535	inactive
Adsl	SID104195292	inactive
Osi19	SID104192361	inactive
dpr19	SID104182029	inactive
Taf6	SID104191091	inactive
CG2871	SID104198022	inactive
CG2871	SID104201392	inactive
RhoGAP68F	SID104190509	inactive
Kpc2	SID104187427	inactive
pelo	SID104183380	inactive
CG13794	SID104182090	inactive
Acbp3	SID104190814	inactive
GC	SID104188188	inactive

The list goes on (7 carried over from the part before).
Target gene	PubChem SID	outcome
CG2871	SID104201392	inactive
RhoGAP68F	SID104190509	inactive
Kpc2	SID104187427	inactive
pelo	SID104183380	inactive
CG13794	SID104182090	inactive
Acbp3	SID104190814	inactive
GC	SID104188188	inactive
CG15024	SID104188270	inactive
Dif	SID104183108	inactive
CG9609	SID104199991	inactive
CG32987	SID104201856	inactive
CG18190	SID104186506	inactive
mRpL48	SID104180298	inactive
CG13358	SID104198326	inactive
CG13575	SID104184003	inactive
CG13575	SID104202210	inactive
CG14331	SID104194602	inactive
CR33315	SID104202304	inactive
mas	SID104188512	inactive
wntD	SID104196215	inactive
CG42579	SID104200183	inactive
TM9SF3	SID104189539	inactive
Tango10	SID104199599	inactive
CG12521	SID104189685	inactive
Cpr62Ba	SID104188195	inactive
CG18538	SID104186557	inactive
Sgs3	SID104191072	inactive
beta3GalTII	SID104187045	inactive
Pez	SID104183189	inactive
ninaC	SID104183371	inactive
CG32262	SID104187957	inactive
CG14767	SID104186292	inactive
CG12426	SID104194308	inactive
CG31268	SID104192995	inactive
CG16984	SID104188292	inactive
